Tested on: C difficile isolates
Assay: In vitro susceptibility of C difficile isolates (agar dilution for rifaximin, Etest for rifampin)
Details: rifaximin alone n = 11; rifampin n = 28

CO[C@H]1/C=C/O[C@@]2(C)Oc3c(C)c(O)c4c(O)c(c(/C=N/N5CCN(C)CC5)c(O)c4c3C2=O)NC(=O)/C(C)=C\C=C\[C@H](C)[C@H](O)[C@@H](C)[C@@H](O)[C@@H](C)[C@H](OC(C)=O)[C@@H]1C [Rifampin, rifampin]
Resistant isolates with genotype A+ B+ BT+ tcdC-del−, %: (14) %
Resistant isolates with genotype A+ B+ BT− tcdC-del+, %: (18) %
Resistant isolates with genotype A+ B+ BT− tcdC-del−, %: (46) %
Resistant isolates with genotype A− B− BT− tcdC-del−, %: (14) %
